{"source": "PubChem BioAssay AID1347076", "about": "(National Center for Advancing Translational Sciences (NCATS), 2019)", "note": "Among all 400,000 compounds or so, about 13,000 (3.2%) were called active. Inconclusive results, whose numbers are uncertain, are shown with a selection of clear calls. Calls come from the whole dose curve; as a rule, active = well fitted cell-killing curve with a large enough effect; inconclusive = small, poorly fitted or top-dose-only effect, or effect the other way; inactive = flat fitted curve, though single readings scatter. Potencies of inconclusive entries are doubtful fits and often do not repeat. % is set by controls: 0 for no effect and ±100 for the full control effect; potency is the fitted concentration of half-maximal effect."}
{"experiment": "qHTS assay for MDR1-selective chemotherapeutics: Primary screen using the drug-selected MDR subline cells KB-V1; note: nearly all actives have a fitted effect of over 60% in size", "conditions": "KB-V1 MDR cells viability, CellTiter-Glo, 72 h; activity change, negative = cytotoxicity: at 46.1 µM (top of the series)", "method_in_brief": "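Potencies derive from concentration-effect curves fitted to normalized luminescence (CellTiter-Glo) of KB-V1 cells treated for 72 h at 37 degrees C in phenol-red-free DMEM containing 10% FBS.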"}
{"smiles": "Cc1nn(C)cc1CN1CCCC(C(=O)c2ccc(-c3ccccc3)c(F)c2)C1", "note": "(centres undefined)", "Potency": "inconclusive: 9.2 µM [cytotoxic, partial curve]"}
{"smiles": "CCC(=O)c1ccc(OCC(=O)O)c(OC)c1", "Potency": "inconclusive: 29.1 µM [rising, single point]"}
{"smiles": "COC(=O)c1ccc2c(=O)n(CC3CCCO3)c(SCC(=O)Nc3ccccc3OC)nc2c1", "note": "(centres undefined)", "Potency": "active: 3.26 µM"}
{"smiles": "O=C(Nc1ccc2c(c1)OCCO2)c1cnn(-c2ccccc2)n1", "Potency": "inconclusive: 29.1 µM [rising, partial curve, poor fit]"}
{"smiles": "CN(C)CC(NC(=O)c1cccc(S(=O)(=O)Nc2ccc3c(c2)OCO3)c1)c1ccccc1", "note": "(centres undefined)", "Potency": "inconclusive: 29.1 µM [rising, single point]"}
{"smiles": "O=C(/C=C/c1ccccc1)NC(NC(=S)Nc1ccc(Cl)cc1Cl)C(Cl)(Cl)Cl", "note": "(centres undefined)", "Potency": "inconclusive: 29.1 µM [cytotoxic, single point]"}
{"smiles": "COc1ccc(NC(=O)c2cccc(N3C(=O)c4ccc(C(=O)Nc5ccc(OC)c(O)c5)cc4C3=O)c2)cc1O", "Potency": "inconclusive: 29.1 µM [rising, single point]"}
{"smiles": "COc1ccc(C(=O)Nn2c(SCC(=O)NC3CCCCC3)nc3ccccc3c2=O)cc1", "Potency": "active: 18.4 µM"}
{"smiles": "CCOc1ccc(S(=O)(=O)NCc2ccc3c(c2)OCO3)cc1C(=O)O", "activity change, negative = cytotoxicity": "inactive: -8.52%"}
{"smiles": "CCc1ccc(NCc2cc3ccc(OC)cc3n(CC(=O)Nc3ccc(C(C)C)cc3)c2=O)cc1", "activity change, negative = cytotoxicity": "inactive: -25.8%"}
{"smiles": "O=c1cc(C(F)(F)F)nc(-n2[nH]c3c(c2=O)CCCC3)[nH]1", "Potency": "inconclusive: 2.31 µM [cytotoxic, full curve]"}
{"smiles": "O=c1ccccn1Cc1c(Cl)cccc1Cl", "Potency": "inconclusive: 16.4 µM [cytotoxic, single point]"}
{"smiles": "O=C(CSc1ccc2nnc(-c3cccnc3)n2n1)Nc1ccccc1", "Potency": "inconclusive: 0.13 µM [rising, full curve]"}
{"smiles": "CCCCC(C)Sc1nc2c([nH]1)c(=S)n(C)c(=O)n2C", "note": "(centres undefined)", "Potency": "active: 4.11 µM"}
{"smiles": "CCOC(=O)N1CCN(C(=O)CN(Cc2ccc(Cl)cc2)S(=O)(=O)c2ccc(C)cc2)CC1", "Potency": "inconclusive: 2.59 µM [cytotoxic, full curve, poor fit]"}
{"smiles": "N/C(=N\\OC(=O)N1CCOCC1)c1ccc(Br)cc1", "Potency": "active: 20.6 µM"}
{"smiles": "COC(=O)C1C2CC3c4[nH]c5cc(OC)ccc5c4CCN3CC2CC(OC2CCCCO2)C1OC", "note": "(centres undefined)", "activity change, negative = cytotoxicity": "inactive: -12.1%"}
{"smiles": "COc1ccc(-c2cnc3c(NC(C)=O)cc(-c4cc(F)ccc4OC)cn23)cc1OC", "Potency": "inconclusive: 16.4 µM [cytotoxic, single point]"}
{"smiles": "Cc1cccc(N2CCN(C(=O)c3ccncc3)CC2)c1C", "Potency": "active: 5.8 µM"}
{"smiles": "Cc1cc(F)ccc1S(=O)(=O)N1CCCOC1CNC(=O)C(=O)NC1CCCC1", "note": "(centres undefined)", "Potency": "inconclusive: 20.6 µM [cytotoxic, single point]"}
{"smiles": "O=C(COCc1cc(-c2ccco2)on1)Nc1cccc(O)c1", "Potency": "inconclusive: 14.6 µM [rising, partial curve, poor fit]"}
{"smiles": "CCOc1ccc(C(=O)CN2CCN(S(=O)(=O)c3ccc(OC)cc3)CC2)cc1", "Potency": "inconclusive: 20.6 µM [cytotoxic, partial curve]"}
{"smiles": "CC1(C(=O)Nc2ccc(F)c(Cl)c2)Cc2c(-c3cccc(C(N)=O)c3)ccnc2O1", "note": "(centres undefined)", "Potency": "inconclusive: 23.1 µM [cytotoxic, single point]"}
{"smiles": "Cc1c(Cl)cccc1NC(=S)NNc1ncc(C(F)(F)F)cc1Cl", "Potency": "inconclusive: 16.4 µM [cytotoxic, single point]"}
{"smiles": "COc1ccc(-c2n[nH]c(C)c2-c2cc(OC)ccc2O)cc1", "activity change, negative = cytotoxicity": "inactive: -1.49%"}
{"smiles": "O=P(C1=C(N2CCOCC2)/C(=C\\c2ccccc2)CC1)(N1CCOCC1)N1CCOCC1", "activity change, negative = cytotoxicity": "inactive: 2.62%"}
{"smiles": "Nc1cccc(C#Cc2ccc3c(c2)C(=O)/C(=C/c2ccsc2)O3)c1", "activity change, negative = cytotoxicity": "inactive: -0.0849%"}
{"smiles": "CN(C)S(=O)(=O)c1ccc2c(c1)N(CC(=O)N1CCN(c3cccc(Cl)c3)CC1)CCS2", "Potency": "inconclusive: 5.17 µM [cytotoxic, partial curve]"}
{"smiles": "CCOC(=O)c1ccc(NS(=O)(=O)c2c(C)[nH]c(C)c2C(=O)N2CCCCC2)cc1", "activity change, negative = cytotoxicity": "inactive: 0%"}
{"smiles": "O=C(/C(=C/O)N=Nc1ccc(Cl)cc1)c1ccncc1", "activity change, negative = cytotoxicity": "inactive: -13.6%"}
{"smiles": "Cn1c(=O)c(=O)n(C)c2cc(S(=O)(=O)CCC(=O)Nc3cccc(C(F)(F)F)c3)ccc21", "Potency": "inconclusive: 29.1 µM [rising, single point]"}
{"smiles": "CCOCCCN(C(=O)Cn1nnc(-c2ccc(OC)c(OC)c2)n1)C(CC)C(=O)NC1CCCC1", "note": "(centres undefined)", "Potency": "inconclusive: 4.11 µM [cytotoxic, full curve]"}
{"smiles": "C=CCN1C(=O)C(O)(CC(=O)c2ccccn2)c2ccccc21", "note": "(centres undefined)", "activity change, negative = cytotoxicity": "inconclusive: 8.75%"}
{"smiles": "COC(=O)CNc1ccc2c(c1)OCO2", "Potency": "inconclusive: 16.4 µM [rising, single point]"}
{"smiles": "Cc1ccc(-n2cc3ccc([N+](=O)[O-])cc3n2)cc1", "Potency": "inconclusive: 20.6 µM [cytotoxic, single point]"}
{"smiles": "C[C@H](NC(=O)c1nc[nH]c1C(=O)N(C)Cc1ccccc1)C(=O)OC(C)(C)C", "Potency": "inconclusive: 0.461 µM [rising, partial curve, poor fit]"}
{"smiles": "O=C(c1ccccc1Sc1ccc([N+](=O)[O-])cc1Cl)N1CCOCC1", "Potency": "inconclusive: 16.4 µM [cytotoxic, single point]"}
{"smiles": "O=C(N1CCOCC1)N1CCN(c2ccccc2)CC1", "Potency": "inconclusive: 2.59 µM [rising, partial curve, poor fit]"}
{"smiles": "Cc1c(C(=O)Nc2ccc(S(=O)(=O)N(C)C3CCN(C)CC3)cc2)oc2c(Cl)cccc12", "Potency": "inconclusive: 23.1 µM [cytotoxic, single point]"}
{"smiles": "O=C(N/N=C/c1ccc(Cl)cc1Cl)c1n[nH]c2c1CCCC2", "Potency": "inconclusive: 13 µM [cytotoxic, partial curve, poor fit]"}
{"smiles": "COc1cc(NC(=O)Nc2nnc(N3CCCCCC3)s2)cc(OC)c1", "activity change, negative = cytotoxicity": "inactive: 10.6%"}
{"smiles": "O=C(Cn1cc2c(n1)CCCCC2)NCc1ccccc1", "activity change, negative = cytotoxicity": "inconclusive: 3.52%"}
{"smiles": "O=c1cc(C(F)(F)F)[nH]c2c(C(F)(F)F)cccc12", "Potency": "inconclusive: 18.4 µM [cytotoxic, single point]"}
{"smiles": "COc1ccc(N2CCN(S(=O)(=O)CCNC(=O)COc3ccccc3)CC2)cc1", "Potency": "inconclusive: 8.2 µM [cytotoxic, partial curve]"}
{"smiles": "CSc1nc(O)c(C(c2ccc(C)cc2)c2c(O)nc(SC)[nH]c2=O)c(=O)[nH]1", "Potency": "inconclusive: 6.51 µM [rising, partial curve, poor fit]"}
{"smiles": "COc1ccc(-c2ccc([C@H]3[C@H]4C=CC[C@@H](C)[C@@H]4C(=O)N3Cc3ccccc3)c(F)c2)cc1OC", "Potency": "inconclusive: 14.6 µM [cytotoxic, single point]"}
{"smiles": "CCc1ccc(NC(=O)CSc2ccc(-c3ccco3)nn2)cc1", "Potency": "inconclusive: 16.4 µM [cytotoxic, partial curve]"}
{"smiles": "CCc1ccccc1OCCCOc1ccc(OC)cc1", "activity change, negative = cytotoxicity": "inactive: -17.9%"}
{"smiles": "O=C(Cn1cc(SCc2ccccc2)c2ccccc21)N1CCCCCC1", "Potency": "inconclusive: 20.6 µM [cytotoxic, single point]"}
{"smiles": "COc1cccc(CNc2ccc(N3CCCCC3)cc2)c1OC", "Potency": "inconclusive: 29.1 µM [cytotoxic, single point]"}
{"smiles": "Cc1oc(-c2ccc(C(=O)NCCc3ccc(Cl)cc3)cc2)nc1CSc1ccccc1", "activity change, negative = cytotoxicity": "inactive: 4.92%"}
{"smiles": "Cc1ccc(-c2nc3ncccn3c2NC2CCCCC2)o1", "Potency": "inconclusive: 18.4 µM [cytotoxic, partial curve]"}
{"smiles": "CCNC(=S)N(Cc1c(C)noc1C)c1ccccc1", "Potency": "inconclusive: 23.1 µM [cytotoxic, single point]"}
{"smiles": "COc1ccc(N(CC(=O)N2CCC(C(N)=O)CC2)S(=O)(=O)c2ccccc2)cc1", "activity change, negative = cytotoxicity": "inactive: 20.6%"}
{"smiles": "O=c1c2cc(Br)ccc2nc(-c2cccc(C(F)(F)F)c2)n1O", "Potency": "active: 2.31 µM"}
{"smiles": "Cc1nc(C(F)(F)F)c(C(=O)O)cc1-c1nc(-c2ccccc2)cs1", "Potency": "inconclusive: 0.082 µM [rising, full curve, poor fit]"}
{"smiles": "O=C(NN=Cc1cc([N+](=O)[O-])ccc1O)c1cccc2ccccc12", "Potency": "inconclusive: 4.61 µM [cytotoxic, full curve]"}
{"smiles": "Cc1ccc(N2CCN(c3c(CN4CCCC4)c(=O)oc4ccccc34)CC2)c(C)c1", "activity change, negative = cytotoxicity": "inactive: 2.39%"}
{"smiles": "COCCSc1nnc(NC(=O)CCS(=O)(=O)Cc2ccccc2)s1", "Potency": "inconclusive: 0.731 µM [rising, partial curve]"}
{"smiles": "Nc1ccc2c(c1)Cc1cc(N)c(Br)cc1-2", "Potency": "inconclusive: 16.4 µM [cytotoxic, partial curve]"}
{"smiles": "O=C(COc1ccc(Cl)cc1Br)Nc1nnc(C2CC2)s1", "activity change, negative = cytotoxicity": "inactive: -9.45%"}
{"smiles": "CCc1nnc(NC(=O)CSc2nnc(-c3ccco3)n2CC)s1", "Potency": "inconclusive: 29.1 µM [cytotoxic, single point]"}
{"smiles": "COc1cc(C)ccc1OCCCOc1ccccc1Br", "activity change, negative = cytotoxicity": "inactive: 10.4%"}
{"smiles": "CCn1ccc2cc(S(=O)(=O)N3CCC(C(=O)NCc4ccc(OC)cc4)CC3)ccc21", "activity change, negative = cytotoxicity": "inactive: 6.42%"}
{"smiles": "Cc1ccccc1CN1C(=O)c2ccccc2Sc2ccc(C(=O)OCc3ccco3)cc21", "Potency": "inconclusive: 9.2 µM [cytotoxic, partial curve]"}
{"smiles": "Cc1ccc(S(=O)(=O)n2nc(C)c(S(=O)(=O)N3CCC(C)CC3)c2C)cc1", "activity change, negative = cytotoxicity": "inactive: 0%"}
{"smiles": "COc1c(F)c(F)c(C(=O)Nc2cccc(Cl)c2N2CCOCC2)c(F)c1F", "Potency": "inconclusive: 13 µM [cytotoxic, partial curve, poor fit]"}
{"smiles": "O=C(NC1CCCCC1)c1ccc(CS(=O)(=O)c2ccc(Cl)cc2)o1", "activity change, negative = cytotoxicity": "inactive: 9.43%"}
{"smiles": "CCc1nc(OCc2ccco2)c2sc3nc4c(cc3c2n1)COC(C)(C)C4", "Potency": "inconclusive: 14.6 µM [cytotoxic, partial curve]"}
